Assay results from patent US20150147330A1.
No constants are given. Whether binding was seen depends on the method and setting. Some binding calls cover weakened binding; strength is not graded here. Each block holds one binder with its values, some of them ahead of it.

By UniProt entry, the sequences of proteins in these tests, tags left out. Where a name states a change or a piece, a line headed by the entry shows the natural chain unless it says otherwise. Chains listed by the source or under a name are the forms on record and can include a tag or linker. Residues count along the entry.
recombinant GPC3-human Fc (P51654, residues 25-559): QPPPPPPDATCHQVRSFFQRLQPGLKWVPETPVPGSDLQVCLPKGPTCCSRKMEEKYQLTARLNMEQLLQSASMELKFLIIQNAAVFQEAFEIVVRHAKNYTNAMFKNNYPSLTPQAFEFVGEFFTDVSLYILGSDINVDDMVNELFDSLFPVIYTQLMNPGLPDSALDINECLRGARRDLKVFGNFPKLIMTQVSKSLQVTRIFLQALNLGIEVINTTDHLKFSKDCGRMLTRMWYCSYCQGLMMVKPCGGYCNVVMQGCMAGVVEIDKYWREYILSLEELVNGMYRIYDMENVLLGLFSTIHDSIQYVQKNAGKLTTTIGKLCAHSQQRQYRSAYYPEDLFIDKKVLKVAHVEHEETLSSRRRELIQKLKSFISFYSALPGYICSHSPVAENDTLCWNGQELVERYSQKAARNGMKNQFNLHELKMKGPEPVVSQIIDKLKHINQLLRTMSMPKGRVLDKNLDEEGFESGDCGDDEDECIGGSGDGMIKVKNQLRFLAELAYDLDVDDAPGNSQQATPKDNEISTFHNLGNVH
GPC3AHS (recombinant GPC3 without HS) (P51654, form named): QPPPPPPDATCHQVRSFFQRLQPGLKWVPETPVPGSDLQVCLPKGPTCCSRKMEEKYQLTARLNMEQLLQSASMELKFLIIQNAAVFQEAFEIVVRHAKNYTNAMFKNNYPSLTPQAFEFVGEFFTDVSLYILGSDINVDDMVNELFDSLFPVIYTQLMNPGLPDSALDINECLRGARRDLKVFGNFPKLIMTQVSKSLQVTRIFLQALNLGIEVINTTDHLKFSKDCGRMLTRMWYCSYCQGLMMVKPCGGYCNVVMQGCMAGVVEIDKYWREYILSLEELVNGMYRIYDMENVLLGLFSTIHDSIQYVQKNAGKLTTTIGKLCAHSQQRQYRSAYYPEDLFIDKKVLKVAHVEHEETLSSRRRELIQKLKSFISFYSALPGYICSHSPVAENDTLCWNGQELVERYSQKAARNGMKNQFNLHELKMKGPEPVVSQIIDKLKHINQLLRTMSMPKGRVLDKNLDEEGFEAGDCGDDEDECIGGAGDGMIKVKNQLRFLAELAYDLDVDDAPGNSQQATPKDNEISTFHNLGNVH

What was measured:
[1] = biological target: recombinant GPC3-human Fc (UniProt P51654); experiment: ELISA on coated recombinant GPC3
[2] = biological target: GPC3AHS (recombinant GPC3 without HS) (UniProt P51654); experiment: ELISA on coated GPC3AHS (weaker signal than on wild type)

binding [1]: binds
binding [2]: binds
B1: YP8 (antibody, V domains shown)
VH: EVQLVGSGGGLVQPEGSLKLSCAASGFTFKTNAMNWVRQAPGKGLEWVARIRNKTNNYATYYADSVKDRFTISRDDSQSMLYLQMNNLKTEDTAMYFCVAGNSFAYWGQGTLVTVSA
VL: DIVMSQSPSSLAVSVGEKVTVNCKSSQSLLYSNNQKNYLAWYQQKPGQSPKLLIYWASTREYGVPDRFTGSGSGTDFTLTISSVKAEDLAVYYCQQYYNYPLTFGAGTKLELK

binding [1]: binds
binding [2]: binds
B2: YP6 (antibody, V domains shown)
VH: B1 VH
VL: B1 VL
